Laboratory results taken from the supplement of paper PMC4371806.
The full ranking holds about 1,600 compounds; the median of “plate-normalized OD600 growth (mean of duplicates)” is about 0.31, and the lowest 2% start at about 0.23. This is one part of the list.

Tested on: Escherichia coli BW25113
Experiment: plate-normalized OD600 growth (mean of duplicates) (OD600 (normalized)); higher = more growth (less inhibition)
Details: 10 µM
Description: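 E. coli BW25113 in LB (100 µl, 96-well, no shaking) was exposed to 10 µM of each compound (here the ChemBridge subset of a ~30,000-member library) and grown at 37°C for 24 h or 15°C for 48 h, in duplicate. Growth was read as OD600 and the duplicate ODs were normalized across screening plates to correct plate-to-plate variation.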

SMILES | plate-normalized OD600 growth (temperature: 15°C, 48 h) | plate-normalized OD600 growth (temperature: 37°C, 24 h)
CCOc1ccc(NC(=O)CC2Nc3ccccc3NC2=O)cc1 (configuration not stated) | 0.273 | 0.648
OCCN(Cc1ccccc1)Cc1cccc(F)c1 | 0.248 | 0.596
CS(=O)(=O)N1CCN(c2ccc([N+](=O)[O-])c(N3CCCCC3)c2)CC1 | 0.276 | 0.632
COc1ccc(-c2cn3ccccc3n2)cc1F | 0.229 | 0.633
CC1(C)CC(=O)C=C(Nc2ccc(F)c(F)c2)C1 | 0.247 | 0.617
CCn1c2ccccc2c2cc(C3C(C#N)=C(N)OC4=C3C(=O)CCC4)ccc21 (configuration not stated) | 0.24 | 0.599
CC(=C1C(=O)c2ccccc2C1=O)N1CCN(c2ccc([N+](=O)[O-])cc2)CC1 | 0.279 | 0.636
Cc1nc2ccccc2n1S(=O)(=O)c1ccc(Cl)cc1 | 0.25 | 0.661
Clc1ccc(CN2CCN(c3ccccn3)CC2)cc1 | 0.233 | 0.655
CC(=O)Nc1ccc2oc(-c3cccc(I)c3)nc2c1 | 0.235 | 0.614
CN(C)c1ccc(CN2CCc3c([nH]c4ccccc34)C2)cc1 | 0.275 | 0.622
N#CC1=C(N)Oc2cc(N)ccc2C1c1cc(Br)cs1 (configuration not stated) | 0.27 | 0.631
Cc1c(-c2ccccc2)nc2c3ccccc3ccn12 | 0.244 | 0.611
Cc1onc(-c2ccccc2Cl)c1C(=O)O | 0.285 | 0.639
Cc1cccc(C(=O)Nc2ccc3c(c2)OCO3)c1 | 0.25 | 0.625
COc1cnn(C2CCCCC2)c(=O)c1Cl | 0.253 | 0.613
O=[N+]([O-])c1cccc(C(=NCc2ccccc2)NO)c1 | 0.273 | 0.643
Cc1cc(Cl)c(C(=O)NC(C)C2CC2)cc1Cl (configuration not stated) | 0.252 | 0.614
CN(C)CCN(C)Cc1ccc2c(c1)Cc1ccccc1-2 | 0.256 | 0.631
c1ccc2oc(CCCCc3nc4ccccc4o3)nc2c1 | 0.256 | 0.614
Cc1cc(C)c(C2C(C#N)=C(N)OC3=C2C(=O)CC(C)(C)C3)c(C)c1 (configuration not stated) | 0.244 | 0.594
NC(=O)NC(=O)Nc1ccc(Cl)cc1 | 0.253 | 0.615
O=C(O)CSc1ccc(Br)cc1 | 0.222 | 0.609
COc1ccc(Nc2nc(-c3ccc(F)cc3F)cs2)cc1 | 0.251 | 0.633

SMILES | plate-normalized OD600 growth (temperature: 15°C, 48 h) | plate-normalized OD600 growth (temperature: 37°C, 24 h)
O=C(O)c1cccc(S(=O)(=O)N2CCCC2)c1 | 0.242 | 0.646
Cc1c(C(=O)NC2CCCC2)cccc1[N+](=O)[O-] | 0.252 | 0.636
COc1cc2c(cc1OC)CC1(CCCCC1)N=C2 | 0.238 | 0.625
N#CC(=Cc1cccc(Br)c1)c1nc2ccccc2[nH]1 | 0.262 | 0.653
Cc1ccc2c(c1)c1c(n2C)C(O)CCC1 (configuration not stated) | 0.256 | 0.628
CC(c1ccccc1)C1CC(=O)N(c2ccc(I)cc2)C1=O (configuration not stated) | 0.246 | 0.634
Cc1cccc(NC(=O)C(O)c2ccccc2)c1 (configuration not stated) | 0.249 | 0.614
N#Cc1ccc(-c2cccs2)[nH]c1=O | 0.236 | 0.644
COc1ccc(-c2csc(/C(C#N)=C\c3cccnc3)n2)cc1 | 0.244 | 0.645
CCCS(CCC)=C(C(N)=O)[N+](=O)[O-] | 0.28 | 0.622
O=[N+]([O-])c1cc(F)c(N2CCOCC2)cc1N1CCCCC1 | 0.239 | 0.613
O=C(Nc1ccc(Cl)cc1Cl)C1CCCO1 (configuration not stated) | 0.234 | 0.605
Cc1cc(C)n(C(=O)c2ccccc2F)n1 | 0.251 | 0.635
COc1ccc(S(=O)(=O)N2CCCC2)cc1 | 0.219 | 0.612
CSc1nc(C)c(C(C)=O)cc1C#N | 0.244 | 0.621
N#Cc1c(N)nc2c(c1-c1ccccc1)CCCCC2 | 0.243 | 0.602
Nc1cc(C(=O)O)ccc1Nc1ccccc1 | 0.261 | 0.634
CC(=O)c1ccc(NC(=O)Cc2ccccc2[N+](=O)[O-])cc1 | 0.237 | 0.599
N#CCNC1CC(=O)N(c2ccc(F)cc2)C1=O (configuration not stated) | 0.245 | 0.606
N#CC1=C(N)Oc2cc(N)ccc2C1c1cccc(Cl)c1Cl (configuration not stated) | 0.243 | 0.592
CCSC1=C(C#N)C(c2ccc(Cl)cc2Cl)CC(=O)N1 (configuration not stated) | 0.255 | 0.65
COc1ccc(NC(=O)c2cccc(C)c2)c(OC)c1 | 0.244 | 0.625
CC1CCCC(C)N1C(=O)Nc1ccccc1 (configuration not stated) | 0.256 | 0.622
COc1ccc([N+](=O)[O-])cc1NCc1c(F)cccc1F | 0.25 | 0.628

SMILES | plate-normalized OD600 growth (temperature: 15°C, 48 h) | plate-normalized OD600 growth (temperature: 37°C, 24 h)
O=c1c(Cc2ccccc2)c[nH]c2ccccc12 | 0.242 | 0.634
O=C(O)CCSc1nccn1Cc1ccccc1 | 0.242 | 0.653
CCc1ccc(NC(=O)Cn2cc([N+](=O)[O-])nc2C)cc1 | 0.261 | 0.653
O=C(NN1CCOCC1)c1cccc(Br)c1 | 0.253 | 0.615
COc1ccc(-c2c(C)[nH]n3c(=O)cc(-c4ccc([N+](=O)[O-])cc4)nc23)cc1 | 0.24 | 0.608
COc1ccc2c(c1)-c1nc(N)sc1CC2 | 0.253 | 0.616
COc1ccc(N/C=C(/c2cc(O)ccc2O)[N+](=O)[O-])cc1 | 0.255 | 0.624
CN(CCc1ccccc1)CC(O)c1cccc([N+](=O)[O-])c1 (configuration not stated) | 0.246 | 0.611
O=C(COc1ccc(Cl)cc1Cl)NCCc1ccccc1 | 0.258 | 0.621
CCN1CCN(CC2CCCCC2)CC1 | 0.26 | 0.637
CC(=O)Nc1ccc(S(=O)(=O)NC2=NCCS2)cc1 | 0.234 | 0.602
O=C(CSc1nc2ccccc2o1)NC1CCCCC1 | 0.3 | 0.648
CCOc1ccc(NC(=O)c2c(OC)cccc2OC)cc1 | 0.256 | 0.611
Cc1nc2n(n1)C(c1ccccc1)C=C(c1ccccc1)N2 (configuration not stated) | 0.239 | 0.617
OC1CCCN(Cc2ccc(Br)s2)C1 (configuration not stated) | 0.255 | 0.632
Cc1ccc(O)c(-c2cc(-c3ccccc3)n[nH]2)c1 | 0.246 | 0.599
N#C/C(=C\c1ccc(F)cc1)c1nc(C2CC2)cs1 | 0.245 | 0.625
COc1cc(/C=C\C(=O)c2ccco2)cc(OC)c1OC | 0.23 | 0.609
O=[N+]([O-])c1ccccc1Sc1nccn1Cc1ccccc1 | 0.241 | 0.609
Cc1ccc(N2C(=O)CC(SCc3ccccc3)C2=O)c(C)c1 (configuration not stated) | 0.228 | 0.598
NNC(=O)CCn1c2ccc(Cl)cc2c2cc(Cl)ccc21 | 0.241 | 0.587
O=[N+]([O-])c1cccc(CNc2cccc(F)c2)c1 | 0.241 | 0.603
O=C(O)C1NCCc2ccccc21 (configuration not stated) | 0.249 | 0.612

Molecules from the list above that contain a thiophene ring, fused or not:
SMILES | plate-normalized OD600 growth (temperature: 15°C, 48 h) | plate-normalized OD600 growth (temperature: 37°C, 24 h)
N#CC1=C(N)Oc2cc(N)ccc2C1c1cc(Br)cs1 (configuration not stated) | 0.27 | 0.631
N#Cc1ccc(-c2cccs2)[nH]c1=O | 0.236 | 0.644
OC1CCCN(Cc2ccc(Br)s2)C1 (configuration not stated) | 0.255 | 0.632
